# Percent effect of library compounds

The values are deposited in ChEMBL (CHEMBL3988442, “University of Dundee, Small-Polar-MMV Screening Library” (2021)).

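Whole-parasite assay of Trypanosoma brucei over 72 hours; the read-out is not stated. Concentration: 30 µM. The record gives no direction; compounds that gave an IC50 in retests scored well above the rest, so higher reads as stronger inhibition. Values scatter widely below zero; nearly all retest evidence comes from the higher of the two concentrations used. Of about 64,000 compounds tested this way, about 940 (1.5%) reached 50% or more in at least one test.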

Values are the deposited “Percent Effect”, in %. How 0% and 100% were set is not recorded. Most values in the screen are low, and negative values occur. The compounds are a random part of those screened.

Cc1cc(I)c2c(c1)C(=O)C(CN1CCCC1)(CN1CCCC1)CO2 read 48.93%.
CCn1cc(-c2cc(-c3ccn(C)c3)nc(N)c2C#N)cc1C#N read 7.043%.
CC(=O)N1CCC(Oc2ccc(C#N)cc2)CC1 read -46.5%.
COC(=O)NCC(=O)N(C)Cc1csc(C)n1 read -37%.
Cc1cc(CN(C)C(=O)NC2CCN(c3ncccn3)CC2)no1 read 8.254%.
COc1cc(C(C)=O)ccc1SCC(=O)Nc1cc(C)n[nH]1 read -25.13%.
Cc1cnn(CC2CCN(CC(O)c3ccccc3)CC2)c1 (stereo not given) read -77.67%.
CCOc1ccc(C(=O)N2CCCC2c2cnn(C)c2)cn1 (stereo not given) read -8.674%.
OCCNc1cc(N2CCC(n3cc(C4CCCC4)nn3)CC2)ncn1 read 10.36%.
CN(Cc1cccnc1)CC1CC12CCCC2 (stereo not given) read -43.35%.
Cc1n[nH]c(-c2ccc(NC(=O)C(C)N3CCN(C)CC3)cc2)n1 (stereo not given) read -35.23%.
COC(C)(C)CNC(=O)N1CCC(n2ccc(C(F)(F)F)n2)CC1 read -29.98%.
Cc1nc2ccccc2nc1CN1CCCCC1Cn1cncn1 (stereo not given) read 10.07%.
CN1CCN(C(=O)c2ccc3c(c2)nc(N2CCOCC2)n3C)CC1=O read -13.48%.
O=C(O)c1ccccc1-c1ccc(CN2CCC(CO)C2)cc1 (stereo not given) read -10.26%.
CCC(C)Sc1nncn1-c1ccc(OC)nc1 (stereo not given) read 74.74%.
CC(C)C[C@H](N)c1nnc(SCC(=O)Nc2ccc(Br)cc2)o1.Cl read -54.83%.
O=C(O)C(F)(F)F.[H][C@@]12CCN(Cc3ccccc3C)C[C@]1([H])O[C@@H](C(=O)N(C)C)C2 read 40.2%.
Cc1ccsc1CNC(=O)c1ccc(N2CCOC2=O)cc1 read -19.27%.
C[C@@H](CO)Nc1nccc(-c2cnc3sc(Cl)cn3c2=O)n1 read 8.201%.
[H][C@]12CCN(C(C)=O)CC[C@@]1([H])S(=O)(=O)N(CCOC)C2 read -38.8%.
Cc1ccc(C)c(S(=O)(=O)NC(=O)c2ccc(C)[nH]c2=O)c1 read -15.78%.
[H][C@]12CC[C@]([H])(CN(S(=O)(=O)N(C)C)C1)N(C(=O)c1cc[nH]c1C)C2 read -28.33%.
COCCNS(=O)(=O)c1ccc2c(c1)CCN(C(=O)c1cncn1C)C2 read -22.38%.
CCCS(=O)(=O)N1C[C@@H](c2ccccc2)[C@@]2(CCNC2=O)C1 read -54.35%.
Cc1cnccc1N1CCCN(C(=O)CCCS(N)(=O)=O)CC1 read -93.81%.
O=C(CCn1ccc2ccccc21)N1CCC(Nc2cccnn2)CC1 read -13.09%.
NC(=O)c1cn(CC2CCC2)c(C2CC2)n1 read -5.042%.
COCc1nccc(C2CCCN(Cc3cccc(C#N)c3)C2)n1 (stereo not given) read -3.9%.
NC(=O)c1ccc(OCC(=O)NC2CCc3c(F)cccc32)cc1 (stereo not given) read -19.68%.
CN(C)c1nccc(C2CN(c3ccccc3)CCO2)n1 (stereo not given) read 11.94%.

Some entries from above, unchanged:

structure,percent effect
NC(=O)c1cn(CC2CCC2)c(C2CC2)n1,-5.042%
OCCNc1cc(N2CCC(n3cc(C4CCCC4)nn3)CC2)ncn1,10.36%